Test results published in the supplement of paper PMC12595434, “Development of retinoid nuclear receptor pathway antagonists through targeting aldehyde dehydrogenase 1A3” (iScience, 2025).
This is one part of the list. The data scatter; read single values as rough.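 Many melting curves are irregular; where none melted, Tm was taken as 64 °C.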

Protein sequences, listed by entry. Tags and fused reporters are not part of them. Lines headed by an entry give the natural chain unless they say otherwise; changes in a name come on top.
UniProt Q96RS0: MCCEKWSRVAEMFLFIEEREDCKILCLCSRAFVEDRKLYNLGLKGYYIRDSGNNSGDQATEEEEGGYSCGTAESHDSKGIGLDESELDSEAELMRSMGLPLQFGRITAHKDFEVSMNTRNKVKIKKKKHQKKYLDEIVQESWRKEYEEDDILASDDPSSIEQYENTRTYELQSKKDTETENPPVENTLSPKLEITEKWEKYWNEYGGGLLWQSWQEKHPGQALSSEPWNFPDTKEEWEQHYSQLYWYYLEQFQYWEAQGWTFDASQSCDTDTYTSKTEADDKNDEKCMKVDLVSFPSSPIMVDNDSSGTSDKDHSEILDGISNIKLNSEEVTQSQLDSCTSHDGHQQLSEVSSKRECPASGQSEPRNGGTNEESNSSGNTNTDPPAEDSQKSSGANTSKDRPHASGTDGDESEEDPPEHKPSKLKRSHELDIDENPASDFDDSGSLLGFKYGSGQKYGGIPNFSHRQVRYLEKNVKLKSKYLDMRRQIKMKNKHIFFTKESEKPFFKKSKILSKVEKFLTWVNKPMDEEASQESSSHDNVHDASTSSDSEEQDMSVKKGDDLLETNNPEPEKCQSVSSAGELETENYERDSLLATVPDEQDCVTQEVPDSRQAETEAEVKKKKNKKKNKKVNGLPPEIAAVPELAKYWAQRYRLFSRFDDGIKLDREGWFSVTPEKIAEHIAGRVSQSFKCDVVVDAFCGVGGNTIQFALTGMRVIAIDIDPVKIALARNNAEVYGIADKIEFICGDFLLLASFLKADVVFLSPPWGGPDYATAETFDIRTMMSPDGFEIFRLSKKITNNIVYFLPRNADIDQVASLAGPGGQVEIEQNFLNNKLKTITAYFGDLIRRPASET
UniProt Q96PZ2, whole entry: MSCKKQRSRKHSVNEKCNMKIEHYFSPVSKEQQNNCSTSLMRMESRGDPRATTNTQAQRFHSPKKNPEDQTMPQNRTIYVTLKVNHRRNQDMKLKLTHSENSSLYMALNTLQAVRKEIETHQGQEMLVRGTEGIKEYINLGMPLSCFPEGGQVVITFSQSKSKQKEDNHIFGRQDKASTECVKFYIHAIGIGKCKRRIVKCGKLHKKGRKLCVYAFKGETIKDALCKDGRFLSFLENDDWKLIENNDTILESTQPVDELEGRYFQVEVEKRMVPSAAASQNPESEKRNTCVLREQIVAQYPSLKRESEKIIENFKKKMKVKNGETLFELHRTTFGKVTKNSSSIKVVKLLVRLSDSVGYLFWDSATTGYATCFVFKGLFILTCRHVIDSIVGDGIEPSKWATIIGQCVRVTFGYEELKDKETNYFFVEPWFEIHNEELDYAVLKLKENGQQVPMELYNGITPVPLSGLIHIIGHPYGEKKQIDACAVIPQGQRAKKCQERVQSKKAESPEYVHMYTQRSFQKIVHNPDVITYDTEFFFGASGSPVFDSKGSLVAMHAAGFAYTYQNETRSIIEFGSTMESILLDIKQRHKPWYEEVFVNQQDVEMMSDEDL
UniProt Q96K37: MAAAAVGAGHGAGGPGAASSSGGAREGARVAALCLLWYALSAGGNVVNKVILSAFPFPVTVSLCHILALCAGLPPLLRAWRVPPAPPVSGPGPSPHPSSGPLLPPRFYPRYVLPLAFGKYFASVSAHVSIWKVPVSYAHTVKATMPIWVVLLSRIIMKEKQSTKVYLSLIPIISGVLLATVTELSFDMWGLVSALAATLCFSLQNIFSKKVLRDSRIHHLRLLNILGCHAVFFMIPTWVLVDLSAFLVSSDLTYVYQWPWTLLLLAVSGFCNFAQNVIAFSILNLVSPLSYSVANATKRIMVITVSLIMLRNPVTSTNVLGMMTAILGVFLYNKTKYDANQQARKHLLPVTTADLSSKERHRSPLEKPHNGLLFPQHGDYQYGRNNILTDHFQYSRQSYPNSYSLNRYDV
UniProt Q96RU3: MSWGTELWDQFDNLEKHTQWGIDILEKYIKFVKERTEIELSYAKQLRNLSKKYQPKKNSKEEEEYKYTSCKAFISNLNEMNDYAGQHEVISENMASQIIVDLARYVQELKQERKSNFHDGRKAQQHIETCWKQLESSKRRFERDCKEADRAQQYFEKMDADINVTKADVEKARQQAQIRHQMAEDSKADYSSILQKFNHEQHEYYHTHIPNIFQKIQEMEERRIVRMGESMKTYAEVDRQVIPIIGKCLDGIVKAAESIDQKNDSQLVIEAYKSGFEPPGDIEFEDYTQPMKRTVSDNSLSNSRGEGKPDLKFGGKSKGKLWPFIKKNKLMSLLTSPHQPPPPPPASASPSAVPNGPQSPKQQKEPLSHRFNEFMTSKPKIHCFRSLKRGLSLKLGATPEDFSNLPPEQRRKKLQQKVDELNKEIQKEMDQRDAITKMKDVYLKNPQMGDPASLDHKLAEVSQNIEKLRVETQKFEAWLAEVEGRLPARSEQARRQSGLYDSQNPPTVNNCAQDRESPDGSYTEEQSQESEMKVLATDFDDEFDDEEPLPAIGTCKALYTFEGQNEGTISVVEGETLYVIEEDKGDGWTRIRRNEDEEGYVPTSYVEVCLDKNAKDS
UniProt Q96GK7: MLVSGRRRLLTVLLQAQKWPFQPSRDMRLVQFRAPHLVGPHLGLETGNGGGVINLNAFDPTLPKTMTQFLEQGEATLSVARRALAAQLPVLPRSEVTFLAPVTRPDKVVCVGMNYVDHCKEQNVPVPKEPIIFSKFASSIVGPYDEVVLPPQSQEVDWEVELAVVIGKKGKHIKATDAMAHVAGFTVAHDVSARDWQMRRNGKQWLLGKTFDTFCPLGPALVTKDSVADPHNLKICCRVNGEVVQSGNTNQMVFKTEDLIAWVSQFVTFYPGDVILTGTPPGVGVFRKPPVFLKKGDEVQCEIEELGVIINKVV
UniProt Q99504: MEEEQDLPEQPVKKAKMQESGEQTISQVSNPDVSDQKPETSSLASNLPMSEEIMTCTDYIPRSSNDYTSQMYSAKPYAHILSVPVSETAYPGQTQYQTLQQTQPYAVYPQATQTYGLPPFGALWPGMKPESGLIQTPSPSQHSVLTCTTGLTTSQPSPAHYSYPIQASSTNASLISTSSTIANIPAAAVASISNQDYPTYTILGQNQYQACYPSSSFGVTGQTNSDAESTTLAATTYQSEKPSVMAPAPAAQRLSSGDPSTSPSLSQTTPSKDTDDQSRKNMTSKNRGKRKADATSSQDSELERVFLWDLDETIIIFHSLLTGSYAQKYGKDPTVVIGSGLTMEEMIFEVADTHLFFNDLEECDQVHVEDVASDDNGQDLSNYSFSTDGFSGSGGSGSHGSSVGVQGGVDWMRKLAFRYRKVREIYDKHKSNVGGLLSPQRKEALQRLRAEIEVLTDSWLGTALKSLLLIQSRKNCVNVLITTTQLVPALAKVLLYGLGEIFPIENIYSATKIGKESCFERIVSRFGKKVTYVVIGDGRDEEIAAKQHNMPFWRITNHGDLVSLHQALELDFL
UniProt Q96Q07: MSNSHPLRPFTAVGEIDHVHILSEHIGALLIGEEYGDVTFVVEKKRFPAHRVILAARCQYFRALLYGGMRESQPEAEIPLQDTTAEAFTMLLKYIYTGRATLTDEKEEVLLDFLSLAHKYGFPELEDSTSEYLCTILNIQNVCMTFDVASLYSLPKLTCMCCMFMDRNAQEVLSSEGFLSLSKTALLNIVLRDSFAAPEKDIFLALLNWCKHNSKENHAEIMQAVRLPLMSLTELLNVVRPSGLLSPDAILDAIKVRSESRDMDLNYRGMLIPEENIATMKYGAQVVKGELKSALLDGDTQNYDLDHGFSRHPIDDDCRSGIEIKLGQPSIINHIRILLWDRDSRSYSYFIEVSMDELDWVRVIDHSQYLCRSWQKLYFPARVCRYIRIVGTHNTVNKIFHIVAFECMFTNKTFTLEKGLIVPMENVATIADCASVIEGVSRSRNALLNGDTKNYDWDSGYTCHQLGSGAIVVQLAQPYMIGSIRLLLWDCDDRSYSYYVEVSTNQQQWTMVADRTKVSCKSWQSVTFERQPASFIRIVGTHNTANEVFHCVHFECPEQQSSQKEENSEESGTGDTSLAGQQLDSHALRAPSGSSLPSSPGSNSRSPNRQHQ
UniProt Q96IZ0: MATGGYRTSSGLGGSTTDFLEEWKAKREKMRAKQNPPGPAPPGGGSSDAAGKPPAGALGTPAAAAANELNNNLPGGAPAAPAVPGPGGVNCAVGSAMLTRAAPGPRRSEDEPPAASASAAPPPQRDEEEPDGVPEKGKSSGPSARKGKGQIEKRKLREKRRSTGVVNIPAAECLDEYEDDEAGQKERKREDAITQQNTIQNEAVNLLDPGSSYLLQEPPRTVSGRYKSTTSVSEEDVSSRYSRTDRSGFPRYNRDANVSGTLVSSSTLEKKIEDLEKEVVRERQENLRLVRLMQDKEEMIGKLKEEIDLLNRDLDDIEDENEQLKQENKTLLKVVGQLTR
UniProt Q96SZ6: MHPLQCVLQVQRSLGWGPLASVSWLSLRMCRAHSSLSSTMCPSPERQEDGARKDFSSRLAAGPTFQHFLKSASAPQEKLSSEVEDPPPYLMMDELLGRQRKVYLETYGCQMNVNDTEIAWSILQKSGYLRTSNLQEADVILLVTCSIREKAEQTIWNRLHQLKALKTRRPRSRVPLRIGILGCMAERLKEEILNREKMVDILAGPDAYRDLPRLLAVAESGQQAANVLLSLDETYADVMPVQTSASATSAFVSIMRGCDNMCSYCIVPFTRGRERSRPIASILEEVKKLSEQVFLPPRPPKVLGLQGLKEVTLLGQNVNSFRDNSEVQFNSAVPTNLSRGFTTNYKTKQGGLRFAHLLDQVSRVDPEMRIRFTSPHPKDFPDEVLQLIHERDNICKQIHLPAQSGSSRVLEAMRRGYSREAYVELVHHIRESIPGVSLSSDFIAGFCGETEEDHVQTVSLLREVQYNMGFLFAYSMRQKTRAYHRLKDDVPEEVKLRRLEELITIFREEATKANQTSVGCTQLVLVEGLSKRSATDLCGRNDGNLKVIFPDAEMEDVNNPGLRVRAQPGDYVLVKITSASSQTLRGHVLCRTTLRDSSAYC
UniProt Q96J01: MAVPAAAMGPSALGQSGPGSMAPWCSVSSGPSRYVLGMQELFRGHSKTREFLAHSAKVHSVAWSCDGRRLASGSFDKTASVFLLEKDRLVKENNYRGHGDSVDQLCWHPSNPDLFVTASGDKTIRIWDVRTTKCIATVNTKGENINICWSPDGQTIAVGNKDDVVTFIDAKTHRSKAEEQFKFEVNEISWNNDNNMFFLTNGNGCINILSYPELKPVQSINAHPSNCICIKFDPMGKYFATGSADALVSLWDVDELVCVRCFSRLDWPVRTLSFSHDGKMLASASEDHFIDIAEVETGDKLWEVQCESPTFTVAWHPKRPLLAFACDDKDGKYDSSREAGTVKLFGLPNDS
UniProt Q96GA7: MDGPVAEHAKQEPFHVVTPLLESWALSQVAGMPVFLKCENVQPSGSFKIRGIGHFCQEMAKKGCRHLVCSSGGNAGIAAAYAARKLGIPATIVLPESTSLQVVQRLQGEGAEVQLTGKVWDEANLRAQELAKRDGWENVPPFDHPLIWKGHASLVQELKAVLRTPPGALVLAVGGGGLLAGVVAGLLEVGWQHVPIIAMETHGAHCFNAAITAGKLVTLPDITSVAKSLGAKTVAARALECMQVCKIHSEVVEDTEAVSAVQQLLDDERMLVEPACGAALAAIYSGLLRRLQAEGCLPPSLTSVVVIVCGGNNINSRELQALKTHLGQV
UniProt Q96N64: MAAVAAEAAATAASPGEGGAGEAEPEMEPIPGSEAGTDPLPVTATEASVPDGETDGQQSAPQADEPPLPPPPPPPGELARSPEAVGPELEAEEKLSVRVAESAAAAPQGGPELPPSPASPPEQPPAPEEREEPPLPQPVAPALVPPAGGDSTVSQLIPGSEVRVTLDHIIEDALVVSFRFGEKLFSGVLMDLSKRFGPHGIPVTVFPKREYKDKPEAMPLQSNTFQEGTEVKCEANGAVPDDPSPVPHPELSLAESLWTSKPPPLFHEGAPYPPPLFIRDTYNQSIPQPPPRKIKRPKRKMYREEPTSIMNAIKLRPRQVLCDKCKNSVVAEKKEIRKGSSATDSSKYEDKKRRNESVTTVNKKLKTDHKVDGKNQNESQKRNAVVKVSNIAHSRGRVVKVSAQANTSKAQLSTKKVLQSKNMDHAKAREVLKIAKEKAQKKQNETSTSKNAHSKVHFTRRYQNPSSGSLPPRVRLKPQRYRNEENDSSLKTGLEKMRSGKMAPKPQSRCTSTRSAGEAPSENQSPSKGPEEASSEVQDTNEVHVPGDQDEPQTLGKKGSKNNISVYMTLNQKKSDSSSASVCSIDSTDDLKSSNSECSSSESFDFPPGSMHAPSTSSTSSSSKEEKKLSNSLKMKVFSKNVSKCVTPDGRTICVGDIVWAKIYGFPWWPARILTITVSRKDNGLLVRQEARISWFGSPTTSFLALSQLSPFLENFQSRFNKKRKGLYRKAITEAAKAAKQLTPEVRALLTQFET
UniProt Q96LW7: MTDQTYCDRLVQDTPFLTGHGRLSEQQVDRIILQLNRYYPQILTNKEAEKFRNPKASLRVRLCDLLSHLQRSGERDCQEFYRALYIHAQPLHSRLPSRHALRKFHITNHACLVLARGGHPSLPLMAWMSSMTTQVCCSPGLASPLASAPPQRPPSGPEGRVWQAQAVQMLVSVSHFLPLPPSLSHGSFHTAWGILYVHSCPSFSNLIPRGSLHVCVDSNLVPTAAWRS

Each target was assayed with CCc1cnccc1C(=O)Nc1cc2c(cc1F)NC(=O)CC2 (assay: melting temperature shift (DMSO Tm minus MBE1-treated Tm) in cellular thermal proteome profiling; higher = less thermal stabilization by MBE1 (negative = stabilized by MBE1)). Conditions: A375; MBE1 concentration: 100 nM.

**Q.** Which melting temperature shift does the source give for PGAM5 (UniProt Q96HS1) here?
**A.** The melting temperature shift was -0.744 °C.

**Q.** With UniProt Q96RK4 as the target, how does the melting temperature shift read?
**A.** Its melting temperature shift is 0.0244 °C.

**Q.** How did the melting temperature shift turn out when NEURL4 (UniProt Q96JN8) was run?
**A.** The melting temperature shift was 0.36 °C.

**Q.** Which melting temperature shift does the source give for MVB12A (UniProt Q96EY5) here?
**A.** Its melting temperature shift is -0.979 °C.

**Q.** TGS1 (UniProt Q96RS0) was tested. Which melting temperature shift did it give?
**A.** Its melting temperature shift is -0.573 °C.

**Q.** Which melting temperature shift does the source give for MED8 (UniProt Q96G25) here?
**A.** The melting temperature shift was 0.275 °C.

**Q.** How did the melting temperature shift turn out when AJUBA (UniProt Q96IF1) was run?
**A.** Its melting temperature shift is -0.983 °C.

**Q.** Which melting temperature shift does the source give for UniProt Q96PZ2 here?
**A.** The melting temperature shift was 0.55 °C.

**Q.** With SLC35E1 (UniProt Q96K37) as the target, how does the melting temperature shift read?
**A.** The melting temperature shift was 0.189 °C.

**Q.** Which melting temperature shift does the source give for UniProt Q96H22 here?
**A.** The melting temperature shift was -1.65 °C.

**Q.** How did the melting temperature shift turn out when FNBP1 (UniProt Q96RU3) was run?
**A.** The melting temperature shift was -0.24 °C.

**Q.** How did the melting temperature shift turn out when FAHD2A (UniProt Q96GK7) was run?
**A.** The melting temperature shift was -2.19 °C.

**Q.** SEC62 (UniProt Q99442) was tested. Which melting temperature shift did it give?
**A.** Its melting temperature shift is -2.31 °C.

**Q.** Which melting temperature shift does the source give for KTI12 (UniProt Q96EK9) here?
**A.** Its melting temperature shift is 0.0659 °C.

**Q.** Which melting temperature shift does the source give for VWA9 (UniProt Q96SY0) here?
**A.** Its melting temperature shift is -0.0488 °C.

**Q.** For UniProt Q99504, which melting temperature shift is on record?
**A.** Its melting temperature shift is -0.275 °C.

**Q.** For UniProt Q96Q07, which melting temperature shift is on record?
**A.** The melting temperature shift was 0.63 °C.

**Q.** How did the melting temperature shift turn out when WDR34 (UniProt Q96EX3) was run?
**A.** The melting temperature shift was 1.12 °C.

**Q.** How did the melting temperature shift turn out when PAWR (UniProt Q96IZ0) was run?
**A.** Its melting temperature shift is -2.38 °C.

**Q.** CDK5RAP1 (UniProt Q96SZ6) was tested. Which melting temperature shift did it give?
**A.** The melting temperature shift was -1.72 °C.

**Q.** CHAMP1 (UniProt Q96JM3) was tested. Which melting temperature shift did it give?
**A.** Its melting temperature shift is -0.447 °C.

**Q.** How did the melting temperature shift turn out when SIPA1 (UniProt Q96FS4) was run?
**A.** The melting temperature shift was 1.14 °C.

**Q.** How did the melting temperature shift turn out when THOC3 (UniProt Q96J01) was run?
**A.** The melting temperature shift was 0.995 °C.

**Q.** For IWS1 (UniProt Q96ST2), which melting temperature shift is on record?
**A.** Its melting temperature shift is -0.866 °C.

**Q.** DTNBP1 (UniProt Q96EV8) was tested. Which melting temperature shift did it give?
**A.** Its melting temperature shift is -1.03 °C.

**Q.** With SDSL (UniProt Q96GA7) as the target, how does the melting temperature shift read?
**A.** Its melting temperature shift is -1.18 °C.

**Q.** For FBXL20 (UniProt Q96IG2), which melting temperature shift is on record?
**A.** The melting temperature shift was 0.116 °C.

**Q.** UniProt Q96N64 was tested. Which melting temperature shift did it give?
**A.** Its melting temperature shift is 1.94 °C.

**Q.** CARD19 (UniProt Q96LW7) was tested. Which melting temperature shift did it give?
**A.** The melting temperature shift was -0.704 °C.

**Q.** With UniProt Q96JI7 as the target, how does the melting temperature shift read?
**A.** Its melting temperature shift is 3.33 °C.
